From PubChem BioAssay AID2662 (National Center for Advancing Translational Sciences (NCATS), 2010)
Among all 290,000 compounds or so, about 110 (0.038%) were called active. The shares of active, inactive and inconclusive entries below differ from those in the screen. Calls follow the shape of the dose curve; as a rule, active = well fitted inhibition curve with a large enough effect in the polarisation, with a control signal flat (not every such curve was filed as active); inconclusive = small, poorly fitted or top-dose-only effect, or effect the other way, or a change in a side signal; inactive = no such curve, though single readings can be large or run the other way; the % refers to the polarisation. A potency beside an inconclusive call is a rough fit, not a confirmed value. A note “side channel” means that the fit belongs to a control or component signal, not to the main read-out.

Protein sequences, listed by entry. Tags and fused reporters are not part of them.
UniProt Q03164, whole entry, looked up: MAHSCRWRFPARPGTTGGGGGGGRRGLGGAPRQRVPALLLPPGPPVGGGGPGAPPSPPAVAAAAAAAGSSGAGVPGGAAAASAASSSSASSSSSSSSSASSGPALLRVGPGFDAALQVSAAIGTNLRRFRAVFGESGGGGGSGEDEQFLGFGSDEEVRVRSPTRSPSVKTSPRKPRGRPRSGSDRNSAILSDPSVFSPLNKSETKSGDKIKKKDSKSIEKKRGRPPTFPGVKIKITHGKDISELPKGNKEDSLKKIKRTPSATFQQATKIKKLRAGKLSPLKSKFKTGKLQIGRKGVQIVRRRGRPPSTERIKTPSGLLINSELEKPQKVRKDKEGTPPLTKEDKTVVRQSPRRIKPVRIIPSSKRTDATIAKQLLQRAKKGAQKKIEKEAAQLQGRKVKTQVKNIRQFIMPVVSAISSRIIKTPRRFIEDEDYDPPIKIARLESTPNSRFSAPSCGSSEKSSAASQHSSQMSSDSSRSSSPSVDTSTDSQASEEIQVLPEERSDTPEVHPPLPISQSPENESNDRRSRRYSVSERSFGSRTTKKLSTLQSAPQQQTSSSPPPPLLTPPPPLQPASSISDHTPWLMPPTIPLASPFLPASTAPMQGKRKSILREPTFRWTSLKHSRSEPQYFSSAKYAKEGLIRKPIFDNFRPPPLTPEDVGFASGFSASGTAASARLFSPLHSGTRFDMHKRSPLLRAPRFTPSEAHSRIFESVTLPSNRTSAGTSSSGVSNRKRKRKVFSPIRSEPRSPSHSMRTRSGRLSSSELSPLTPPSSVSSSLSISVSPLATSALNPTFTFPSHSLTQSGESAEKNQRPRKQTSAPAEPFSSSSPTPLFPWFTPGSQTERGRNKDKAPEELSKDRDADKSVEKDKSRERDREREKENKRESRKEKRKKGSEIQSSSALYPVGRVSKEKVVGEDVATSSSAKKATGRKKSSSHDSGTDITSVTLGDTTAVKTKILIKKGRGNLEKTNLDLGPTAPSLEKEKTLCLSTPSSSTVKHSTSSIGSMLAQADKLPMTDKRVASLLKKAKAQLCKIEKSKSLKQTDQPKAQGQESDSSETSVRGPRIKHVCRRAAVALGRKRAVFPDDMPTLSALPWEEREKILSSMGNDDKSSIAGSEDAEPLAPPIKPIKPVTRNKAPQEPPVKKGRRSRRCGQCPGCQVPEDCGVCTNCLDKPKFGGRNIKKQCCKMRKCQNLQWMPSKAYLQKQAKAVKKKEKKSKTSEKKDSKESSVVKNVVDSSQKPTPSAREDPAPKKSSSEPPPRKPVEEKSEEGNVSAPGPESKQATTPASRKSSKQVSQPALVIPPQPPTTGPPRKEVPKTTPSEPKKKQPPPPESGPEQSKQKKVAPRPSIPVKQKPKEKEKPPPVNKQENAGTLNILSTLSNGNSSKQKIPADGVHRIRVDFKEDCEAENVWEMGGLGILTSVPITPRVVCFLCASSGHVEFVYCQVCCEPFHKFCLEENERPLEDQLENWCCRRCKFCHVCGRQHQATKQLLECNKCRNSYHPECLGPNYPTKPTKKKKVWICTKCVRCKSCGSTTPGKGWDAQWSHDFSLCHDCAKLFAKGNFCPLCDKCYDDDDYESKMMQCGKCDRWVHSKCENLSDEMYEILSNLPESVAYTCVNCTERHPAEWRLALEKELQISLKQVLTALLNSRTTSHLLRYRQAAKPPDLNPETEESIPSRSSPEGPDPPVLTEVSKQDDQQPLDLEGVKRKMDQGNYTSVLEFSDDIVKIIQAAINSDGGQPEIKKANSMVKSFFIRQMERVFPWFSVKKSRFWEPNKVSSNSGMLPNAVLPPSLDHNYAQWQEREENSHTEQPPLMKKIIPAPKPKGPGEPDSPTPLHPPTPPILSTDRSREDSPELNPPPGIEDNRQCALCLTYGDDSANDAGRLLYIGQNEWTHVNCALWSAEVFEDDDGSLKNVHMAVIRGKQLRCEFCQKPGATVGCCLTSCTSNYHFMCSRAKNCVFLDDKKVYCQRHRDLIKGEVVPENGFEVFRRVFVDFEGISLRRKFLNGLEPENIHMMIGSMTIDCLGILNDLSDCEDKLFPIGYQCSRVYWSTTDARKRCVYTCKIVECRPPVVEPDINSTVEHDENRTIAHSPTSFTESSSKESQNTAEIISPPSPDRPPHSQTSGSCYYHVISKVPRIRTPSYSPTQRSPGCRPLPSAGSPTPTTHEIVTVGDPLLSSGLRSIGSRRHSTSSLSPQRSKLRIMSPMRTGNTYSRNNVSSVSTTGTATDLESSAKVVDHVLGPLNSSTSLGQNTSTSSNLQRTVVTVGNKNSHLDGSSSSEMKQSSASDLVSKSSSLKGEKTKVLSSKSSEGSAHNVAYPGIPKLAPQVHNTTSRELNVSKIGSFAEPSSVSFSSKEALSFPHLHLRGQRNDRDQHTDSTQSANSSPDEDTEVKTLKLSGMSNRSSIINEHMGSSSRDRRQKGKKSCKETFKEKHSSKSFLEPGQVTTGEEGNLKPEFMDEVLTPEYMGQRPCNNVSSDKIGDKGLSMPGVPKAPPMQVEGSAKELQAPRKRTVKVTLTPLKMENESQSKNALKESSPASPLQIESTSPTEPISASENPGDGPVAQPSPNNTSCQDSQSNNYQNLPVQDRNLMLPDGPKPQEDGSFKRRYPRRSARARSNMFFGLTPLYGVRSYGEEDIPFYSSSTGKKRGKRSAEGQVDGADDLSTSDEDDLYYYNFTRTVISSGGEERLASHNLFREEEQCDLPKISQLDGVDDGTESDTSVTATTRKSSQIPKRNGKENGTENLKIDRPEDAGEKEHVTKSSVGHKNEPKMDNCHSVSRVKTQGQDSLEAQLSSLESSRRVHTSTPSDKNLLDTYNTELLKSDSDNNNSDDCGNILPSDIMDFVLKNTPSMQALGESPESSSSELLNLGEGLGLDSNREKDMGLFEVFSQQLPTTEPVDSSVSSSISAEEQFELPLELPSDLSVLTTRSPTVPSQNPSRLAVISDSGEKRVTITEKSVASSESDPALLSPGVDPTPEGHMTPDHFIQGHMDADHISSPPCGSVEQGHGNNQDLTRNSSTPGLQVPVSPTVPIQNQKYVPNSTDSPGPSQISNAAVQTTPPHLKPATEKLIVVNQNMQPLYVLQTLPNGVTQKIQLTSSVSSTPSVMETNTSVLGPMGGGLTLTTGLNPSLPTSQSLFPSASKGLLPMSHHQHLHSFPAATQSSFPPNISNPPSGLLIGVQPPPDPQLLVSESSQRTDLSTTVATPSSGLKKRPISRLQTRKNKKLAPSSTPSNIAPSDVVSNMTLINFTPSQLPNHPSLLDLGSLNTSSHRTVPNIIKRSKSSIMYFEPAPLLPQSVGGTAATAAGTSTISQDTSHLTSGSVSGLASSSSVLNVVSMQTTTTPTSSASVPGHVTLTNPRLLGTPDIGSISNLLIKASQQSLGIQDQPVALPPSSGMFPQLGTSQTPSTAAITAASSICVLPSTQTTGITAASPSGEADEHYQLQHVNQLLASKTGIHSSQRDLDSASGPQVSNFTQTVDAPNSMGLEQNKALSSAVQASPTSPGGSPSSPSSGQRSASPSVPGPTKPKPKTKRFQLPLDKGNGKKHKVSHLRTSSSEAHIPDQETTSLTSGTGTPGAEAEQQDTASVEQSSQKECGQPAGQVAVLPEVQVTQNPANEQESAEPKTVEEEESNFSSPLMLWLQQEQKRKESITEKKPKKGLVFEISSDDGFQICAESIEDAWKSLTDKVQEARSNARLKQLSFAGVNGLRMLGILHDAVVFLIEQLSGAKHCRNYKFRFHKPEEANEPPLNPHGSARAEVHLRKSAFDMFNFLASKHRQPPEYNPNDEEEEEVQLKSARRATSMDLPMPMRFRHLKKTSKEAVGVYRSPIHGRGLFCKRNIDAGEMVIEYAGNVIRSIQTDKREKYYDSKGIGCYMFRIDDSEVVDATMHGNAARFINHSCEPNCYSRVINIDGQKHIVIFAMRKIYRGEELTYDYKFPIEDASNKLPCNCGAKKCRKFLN

molecular target: Histone-lysine N-methyltransferase 2A (Homo sapiens) (UniProt Q03164); assay: qHTS Fluorescence Polarization Assay for Inhibitors of MLL CXXC domain - DNA interaction; conditions: MLL-CXXC / FITC-HOXA9 DNA fluorescence polarization; activity change, negative = inhibition: at 115 µM (top of the series)
Method in brief: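 Fluorescence polarization: 7 uM MLL-CXXC (stock) preincubated 5 min with compounds, then 50 nM fluorescein-HOX-A9 DNA (stock) added; 30 min ambient. Buffer 50 mM Tris-HCl pH 7.5, 50 mM NaCl, 1 mM DTT, 0.05% BSA.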
Potency is read from the fitted curve at half-maximal effect.

Compound | Potency | activity change, negative = inhibition
CCc1ccc(Nc2nnc(SCC(=O)N(C)CC(=O)Nc3ccccc3CC)s2)cc1 | inconclusive: 7.08 µM [fluorescent, side channel, full curve] | –
C=CCN(CC(=O)NCc1ccccc1)C(=O)c1csnn1 | inconclusive: 7.94 µM [fluorescent, side channel, full curve] | –
COCCN=C1NN=C(c2cc(C)n(CC3CCCO3)c2C)CS1 (configuration not stated) | inconclusive: 31.6 µM [fluorescent, side channel, partial curve] | –
COc1ccccc1N1CCN(CC(O)COc2ccc3c(C)cc(=O)oc3c2)CC1 (configuration not stated) | – | inactive: -2.98%
COc1ccc(C(=O)O/N=C(\N)c2ccccc2)cc1OC | – | inactive: 5.55%
O=S(=O)(Nc1nccs1)c1ccc(NCc2cc(Br)cc(Br)c2O)cc1 | inconclusive: 35.5 µM [inhibitor, partial curve] | –
COc1ccc(C(NC(=O)N2CC(C)OC(C)C2)C(Cl)(Cl)Cl)cc1F (configuration not stated) | inconclusive: 89.1 µM [quencher, side channel, single point] | –
Nc1nnnn1/N=C/c1cc(Cl)cc(Cl)c1O | inconclusive: 31.6 µM [fluorescent, partial curve] | –
CCN(CC)CCN(C(=O)CCS(=O)(=O)c1ccccc1)c1nc2cc(OC)c(OC)cc2s1 | inconclusive: 39.8 µM [inhibitor, single point] | –
Cc1nn(S(=O)(=O)c2cccs2)c(C)c1Sc1ccc([N+](=O)[O-])cc1 | – | inactive: -7.36%
CC(=Nc1ccc(C)cc1)c1sc2ccccc2c1O | inconclusive: 50.1 µM [inhibitor, single point] | –
Fc1ccc(-[n+]2nc(Nc3ccccc3)sc2-c2c(Cl)cccc2Cl)cc1 | inconclusive: 28.2 µM [quencher, side channel, partial curve] | –
Nc1ccc(-c2nc(-c3ccccc3)nc3ccccc23)cc1 | inconclusive: 31.6 µM [fluorescent, side channel, single point] | –
O=S(=O)(Nc1nc(-c2ccccc2)cs1)c1cc(Cl)ccc1Cl | inconclusive: 5.62 µM [inhibitor, partial curve] | –
CC/C(C)=N/Nc1cccc([N+](=O)[O-])c1 | – | inactive: -3.68%
N#Cc1cccc(NC(=O)COC(=O)c2ccc3c(=O)n4c(nc3c2)CCC4)c1 | inconclusive: 14.1 µM [fluorescent, side channel, single point] | –
CC(C)[C@H](NC(=O)C1CCN(C(=O)[C@H](Cc2ccccc2)NC(=O)OC(C)(C)C)CC1)C(=O)O | inconclusive: 44.7 µM [inhibitor, single point] | –
O=C(NCc1cc(Br)cc(Br)c1OC(=O)c1ccccc1[N+](=O)[O-])c1ccccc1 | inconclusive: 89.1 µM [quencher, side channel, single point] | –
COc1ccc(C(=O)NCCc2ccccc2)cc1OC | – | inactive: -0.465%
O=C(NC(=S)Nc1cccc(O)c1)c1ccco1 | inconclusive: 15.8 µM [inhibitor, single point] | –
COc1cccc(-c2cc3c(=O)n(-c4ccccc4)c(=S)[nH]c3s2)c1 | inconclusive: 89.1 µM [inhibitor, single point] | –

Record cards, as listed above:
Nc1ccc(-c2nc(-c3ccccc3)nc3ccccc23)cc1 in the list: Potency: inconclusive: 31.6 µM [fluorescent, side channel, single point]
O=S(=O)(Nc1nc(-c2ccccc2)cs1)c1cc(Cl)ccc1Cl in the list: Potency: inconclusive: 5.62 µM [inhibitor, partial curve]

Later entries:

Compound | Potency | activity change, negative = inhibition
CC1CCC(NS(=O)(=O)c2ccc3c(c2)CC(=O)N3)CC1 (configuration not stated) | – | inactive: 5.85%
COC(=O)c1cc(S(=O)(=O)Nc2ccc(C)c(F)c2)c[nH]1 | – | inactive: 5.77%
C=CCN1C(=O)/C(=C/c2ccc(O)cc2)S/C1=N/c1nccs1 | inconclusive: 28.2 µM [fluorescent, side channel, partial curve] | –
O=C(CC(C(=O)N1CCc2ccccc21)n1ccnc1)N1CCc2ccccc2C1 (configuration not stated) | active: 31.6 µM | –
COc1ccc(-c2csc(NC3=NCCCCC3)n2)cc1 | inconclusive: 7.08 µM [fluorescent, side channel, full curve] | –
Cc1cc(=O)n2c3ccccc3n(CC(O)CN3CCN(CCO)CC3)c2c1C#N (configuration not stated) | – | inactive: 20.5%
COc1ccc(N(CC(=O)NCCC2=CCCCC2)S(=O)(=O)c2ccccc2F)cc1 | inconclusive: 35.5 µM [inhibitor, single point] | –
Cc1ccc(/C=C2\SC(=S)N(c3cccnc3)C2=O)cc1 | inconclusive: 6.31 µM [inhibitor, full curve, poor fit] | –
O=C(Nc1ccc(O)c(-c2nc3ccccc3s2)c1)c1cccs1 | – | inactive: -8.36%
Cc1ccc(C)c(N(C)S(=O)(=O)c2ccc3c(c2)oc(=O)n3C)c1 | inconclusive: 70.8 µM [fluorescent, side channel, partial curve] | –
NS(=O)(=O)c1ccc(N=Nc2c(O)ccc3ccccc23)cc1 | – | inactive: -4.1%
COc1ccc(N=Cc2sc(O)c3ccccc23)cc1 | inconclusive: 22.4 µM [fluorescent, side channel, partial curve] | –
O=C(Nc1ccc(Cl)cc1N1CCOCC1)C1CCCCC1 | inconclusive: 15.8 µM [quencher, side channel, single point] | –
CCn1nc(NC(=O)C2CCCO2)c2cc3cc(C)ccc3nc21 (configuration not stated) | inconclusive: 35.5 µM [fluorescent, side channel, partial curve] | –
N=c1oc2cc(O)ccc2cc1C(=O)Nc1nc2ccccc2s1 | inconclusive: 6.31 µM [fluorescent, side channel, full curve] | –
O=C(CN1CCN(Cc2ccccc2)CC1)Nc1ccc([N+](=O)[O-])cc1C(=O)Nc1ccccc1F | – | inactive: 3.33%
C#Cc1ccc([C@H]2C=C(C(=O)NC3CC3)O[C@@H](OCC)[C@@H]2CCCO)cc1 | inconclusive: 35.5 µM [inhibitor, single point] | –
O=C(N/N=C(\c1ccccc1)c1cccnc1)c1cc(O)ccc1O | inconclusive: 89.1 µM [quencher, side channel, single point] | –
CSc1nncc(/C(C)=N\Nc2cccc(C)c2)n1 | inconclusive: 12.6 µM [inhibitor, single point] | –
COc1ccc(-c2cc(C(F)(F)F)nc(SCC(=O)Nc3cc(C)on3)n2)cc1OC | – | inactive: 2.22%
COc1ccc2c(c1)c(C(=O)CNc1nc(C)cs1)c(C)n2C | – | inactive: 9.59%
